According to the supplement of paper PMC10338343:
± gives the standard deviation. The list shows a part of the results, in another mix than the full data. Many entries were measured with a wide error.

tested on: MILI (PIWIL2) piRISC loaded with L1MC piRNA (26 nt); assay: pre-steady-state target cleavage rate (min^-1); MIWI and MILI are mouse PIWI proteins and EfPiwi is from a freshwater sponge; tags in brackets are library labels; higher = faster piRNA-guided slicing of the target; details: guide: L1MC piRNA 5'p-UAACUAAAUACUAUGCAAGCUGUAGG; auxiliary factor: 500 nM mouse GTSF1
Procedure: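 Cleave-'n-Seq: a library of target RNAs (target site embedded in constant flanks, ACAGCATTCCGCGTTAGTGATATCCG... 5' flank; DNA-blocked outside the site) at 0.1 nM was incubated with 1 nM active mouse MILI or MIWI piRISC (synthetic 5'-monophosphorylated piRNA guide) with or without 500 nM mouse GTSF1 at 33 °C for 1 min to 16 h. Uncleaved targets were sequenced and normalised to non-target controls, and the pooled three trials were fitted to a burst-and-steady-state model to give the pre-steady-state cleavage rate (min^-1; k3 is constrained to at most 1e-4). Sequence is the target site only; target names encode pairing extent (gX:gY) and contiguous / 1-mismatch / 2-mismatch / bulge geometry. Fits with R² ≤ 0 are excluded.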

| Sequence | pre-steady-state target cleavage rate |
| --- | --- |
| UCCUGGAUGUGCUUGCUAUAGUAUUUAGUUA | 0.00199 ± 0.0066 |
| UCCUGGAUGAGCUUGCAUAGUUUUAGUUA | 0.00248 ± 0.0048 |
| UCCUCGUACAGCUUGCAUAGUAUUUAGAAA | 0.131 ± 0.024 |
| UCCUGCUACAGCUUGGUAAGUAUUUUCAAA | 0.00231 ± 0.0057 |
| UCCUGGAUGAGCUUGCAUCGUAUUUAGUUA | 0.0594 ± 0.0092 |
| UCCUGGAUCAGCUUGGUUAGUAUUUACAAA | 0.00756 ± 0.0052 |
| UCCUGGAUGUCCUUGCAUACUUUUUAGUUA | 0.00626 ± 0.004 |
| UCCUGGUACAGCAAGCAUAGUAUUUACAAA | 0.0528 ± 0.019 |
| UCCUGGUACAGCUUGCAUAGUCUUUAGUUA | 0.152 ± 0.025 |
| UCCUGGAUGUCGUUCGAUAGUAUUUAGUUA | 0.00099 ± 0.0095 |

same assay, conditions: guide: L1MC piRNA 5'p-UAACUAAAUACUAUGCAAGCUGUAGG; auxiliary factor: none (no GTSF1)

| Sequence | pre-steady-state target cleavage rate |
| --- | --- |
| UCCUGGAUGUGCUUGCUAUAGUAUUUAGUUA | 0.00071 ± 0.011 |
| UCCUGGAACAGCUUGGAUAGUUUUUAGUUA | 0.00319 ± 0.0033 |
| UCCUGGAUGUCCUUGCAUAGUAUUUUGAUA | 0.000785 ± 0.0084 |
| UCCUGGAACAGCUUCCAUAGUAUUUAGUAA | 0.00133 ± 0.0046 |
| UCCUGGAUGAGCUUGCAUAGUUUUAGUUA | 0.0011 ± 0.0055 |
| UCCUGGAUGUCCUUGCAUACUAUAUAGUUA | 0.00151 ± 0.0039 |
| UCCUGGAUGUCGAACGUAAGUAUUUAGGUUA | 0.000283 ± 0.019 |
| UCCUGGAUGUCGAACGUAAGCUAUUUAGUUA | 0.000302 ± 0.014 |
| UCCUGGAACAGCUAGCAUAGUAUUUACUUA | 0.00207 ± 0.0033 |
| UCCUGGAUGUCGAUGCAAAGUAAUUAGUUA | 0.00064 ± 0.0081 |
| UCCUCGUACAGCUUGCAUAGUAUUUAGAAA | 0.00192 ± 0.0033 |
| UCCUGGAUGAGCUUGGUAAGUAUUUACAAA | 0.00055 ± 0.012 |
| UCCUGGAUGAGCUUGCAUAGUAUUUAGUCA | 0.00259 ± 0.0036 |
| UCCUGGAUGUCGAACGUAUCUAUUCAGUUA | 0.0001 ± 0.027 |
| UCCUGGAUGUCGAAGCAUACUAUUUUGUUA | 0.000195 ± 0.021 |
| UCCUGCAUCAGCUUGCAUAGUAUUUACAAA | 0.00108 ± 0.0053 |

| Sequence | pre-steady-state target cleavage rate |
| --- | --- |
| UCCUGCUACAGCUUGGUAAGUAUUUUCAAA | 0.000773 ± 0.0078 |
| UCCUGGAUGAGCUUGCAUCGUAUUUAGUUA | 0.00554 ± 0.0025 |
| UCCUGGAUCAGCUUGGUUAGUAUUUACAAA | 0.00109 ± 0.005 |
| UCCUGGAUGUGGUUGCAUAGUAUUUAGAAA | 0.00112 ± 0.0096 |
| UCCUCCUACAGCUUCGAUAGUAUUUACAAA | 0.000474 ± 0.0091 |
| UCCUGGAUGUCCUUGCAUACUUUUUAGUUA | 0.0024 ± 0.0022 |
| UCCUGGAUCAGGAUGCAUAGUAUUUUCAAA | 0.000312 ± 0.013 |
| UCCUGGAUGAGGUUCCAUAGUAUUUAGUUA | 0.000492 ± 0.016 |
| UCCUGGAUGUCGAAGCAUAGUAUUUACUUA | 0.000515 ± 0.01 |
| UCCUGGUACAGCAAGCAUAGUAUUUACAAA | 0.000737 ± 0.008 |
| UCCUGGUACAGCUUGCAUAGUCUUUAGUUA | 0.00831 ± 0.003 |
| UCCUGGAUGUCGAAGCAUAGUAUUAAGUUA | 0.00179 ± 0.0034 |
| UCCUGGAUGUGCUUGCAUAGUUAAUAGAAA | 0.000726 ± 0.009 |
| UCCUGGUACAGCUUGCAUAGUAAAUACAAA | 0.000899 ± 0.0054 |
| UCCUGGAUGUCGUUCGAUAGUAUUUAGUUA | 0.000388 ± 0.013 |
